The text below walks through data of patent US20210395742.

By UniProt entry, the sequences of proteins in these tests, tags left out. Where a name states a change or a piece, a line headed by the entry shows the natural chain unless it says otherwise. Residues count along the entry.
UniProt P02769, 25-607: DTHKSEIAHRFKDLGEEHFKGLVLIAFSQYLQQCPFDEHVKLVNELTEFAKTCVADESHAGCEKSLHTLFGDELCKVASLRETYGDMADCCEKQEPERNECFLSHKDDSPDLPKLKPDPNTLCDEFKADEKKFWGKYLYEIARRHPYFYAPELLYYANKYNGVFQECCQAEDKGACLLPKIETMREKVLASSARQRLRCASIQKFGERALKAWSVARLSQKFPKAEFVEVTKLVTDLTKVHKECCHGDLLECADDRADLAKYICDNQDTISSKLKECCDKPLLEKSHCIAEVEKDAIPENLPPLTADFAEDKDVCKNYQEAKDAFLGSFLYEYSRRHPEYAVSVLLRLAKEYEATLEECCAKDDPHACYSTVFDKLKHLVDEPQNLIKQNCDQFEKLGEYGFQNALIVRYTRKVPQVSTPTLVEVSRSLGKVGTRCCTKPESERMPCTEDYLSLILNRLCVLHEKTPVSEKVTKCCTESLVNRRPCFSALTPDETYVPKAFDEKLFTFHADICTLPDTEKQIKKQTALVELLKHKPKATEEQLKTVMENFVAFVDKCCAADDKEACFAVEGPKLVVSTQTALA
UniProt P22629: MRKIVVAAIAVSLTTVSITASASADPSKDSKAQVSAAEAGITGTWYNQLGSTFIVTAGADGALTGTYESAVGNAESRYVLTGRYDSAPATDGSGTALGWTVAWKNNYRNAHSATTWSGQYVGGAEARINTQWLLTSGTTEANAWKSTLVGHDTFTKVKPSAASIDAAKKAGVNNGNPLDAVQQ

Construct, isoform or probe ends are uncertain for at least one entry. For some of these results: No signal at the amounts used counts as a negative. For some of these results: A weaker result is weaker than the reference pair of the same experiment. For some of these results: The direction of at least one scale is not stated here.

Data set [1] addresses Bovine serum albumin (BSA) (Bos taurus) (UniProt P02769). The experiment in a line: EMSA. The following applies: T = 5-ethynyldeoxyuridine clicked with sulfo-HSAB (NHS ester); core of consensus SEQ:22, flanks not given; purified native protein; protein details: ThermoFisher Scientific, non-denatured RNase-free; label: fluorescence detection; single-stranded DNA. A general note: A gel shift assay detects complexes by their altered migration in electrophoresis.

In data set [2] the test system is Guinea pig IgG. Description: EMSA. To be noted: T = 5-ethynyldeoxyuridine clicked with sulfo-HSAB (NHS ester); core of consensus SEQ:22, flanks not given; purified native protein; label: fluorescence detection; single-stranded DNA.
Data set [3] relates to Rabbit IgG. The experiment in a line: EMSA. To be noted: T = 5-ethynyldeoxyuridine clicked with sulfo-HSAB (NHS ester); core of consensus SEQ:22, flanks not given; purified native protein; label: fluorescence detection; single-stranded DNA.
The subject of data set [4] is Rat IgG. Description: EMSA. The following applies: T = 5-ethynyldeoxyuridine clicked with sulfo-HSAB (NHS ester); core of consensus SEQ:22, flanks not given; purified native protein; label: fluorescence detection; single-stranded DNA.
Data set [5] concerns the target Streptavidin (UniProt P22629). Description: EMSA. The following applies: all U = 5-ethynyluridine clicked with sulfo-HSAB (NHS ester), purified recombinant protein, label: annealed IRDye 700 DNA 21-mer; for binding result: random region only [positions count without the 21-nt 5-prime fixed region].
Data set [6] concerns the target Bovine serum albumin (BSA) (Bos taurus) (UniProt P02769). The experiment in a line: competition with a labelled probe. To be noted: all U = 5-ethynyluridine clicked with sulfo-HSAB (NHS ester); random region only, constant flanks as transcribed from SEQ:6 library [positions count without the 21-nt 5-prime fixed region]; equal band intensities at 8-16 uM BSA vs 10 nM streptavidin, pH 7.2; purified native protein; protein details: ThermoFisher Scientific, non-denatured RNase-free; label: annealed IRDye 700 DNA 21-mer; scale: fold specificity for streptavidin over BSA.

For the sequence AGCGCGGAACCGTGCCTGGC [Fc clone 1], the binding result in data set [1] was “binds more weakly”; in data set [2] it was “no binding”; in data set [3] it was “no binding”; in data set [4], “no binding”.

Consider “GGAGAGGGAAGGAGAACGAGCAGGGCAAAAUUUAACUGACAAGCUUAAGUGACACAAAGCCCGG [streptavidin clone 7]”, for which, in data set [5] (covalent complex +), the binding result is on record as “binds”.

As for “GGAGAGGGAAGGAGAACGAGCAGGGUAAAAUUUAACUGACAAGCUAAGUGACACAAAGCCCGG [streptavidin clone 3]”, the binding result in data set [5] (no gel shift, differs from clone 7 by a deletion and a C to E change) was “no binding”.

“GGAGAGGGAAGGAGAACGAGCAUAACGGCAUUGAGCUUAACUGUAAAAGUGACACAAAGCCCGG [streptavidin clone 9]”: the binding result in data set [5] (covalent complex +) was “binds”.

Consider “GGAGAGGGAAGGAGAACGAGCCCGGGUAGCCUUAACUGACGCGCUUAAGUGACACAAAGCCCGG [streptavidin clone 6/10]”, for which the binding result in data set [5] (covalent complex +, aptamer dimer bands also without protein) is “binds”.

“GGAGAGGGAAGGAGAACGAGCGGCACGUAUAACUGACAAACGCUUAAGUGACACAAAGCCCGG [streptavidin clone 2]”: in data set [5] (covalent complex +), the binding result is on record as “binds”.

With “GGAGAGGGAAGGAGAACGAGCGGGACAGCUUAACUGACGAAAACUUAAGUGACACAAAGCCCGG [streptavidin clone 4/5]”, the concentration for a half-maximal effect (EC50) (usually the concentration at which the effect is half-maximal) in data set [5] (random region only, constant flanks as transcribed from SEQ:6 library [positions count without the 21-nt 5-prime fixed region], half-maximal covalent complex, denaturing SDS-PAGE gel shift, 1 h, similar plots at pH 6.0-8.0) was under 10 nM. This sequence displayed a binding signal in data set [6] of 1000.

Regarding “GGAGAGGGAAGGAGAACGAGCUAGCACCUAACAUUUCUUGAAAUGAAAGUGACACAAAGCCCGG [streptavidin clone 1]”, the binding result in data set [5] (lacks conserved …) is “no binding”.

As to “GGAGAGGGAAGGAGAACGAGCUGGAAACGCAUUAACUAACAAGCUUAAGUGACACAAAGCCCGG [streptavidin clone 8]”, the binding result in data set [5] (covalent complex +) is on record as “binds”.
